This note sets out measurements from doi:10.1101/2020.02.19.956243.

By UniProt entry, the sequences of proteins in these tests, tags left out.
UniProt Q13547: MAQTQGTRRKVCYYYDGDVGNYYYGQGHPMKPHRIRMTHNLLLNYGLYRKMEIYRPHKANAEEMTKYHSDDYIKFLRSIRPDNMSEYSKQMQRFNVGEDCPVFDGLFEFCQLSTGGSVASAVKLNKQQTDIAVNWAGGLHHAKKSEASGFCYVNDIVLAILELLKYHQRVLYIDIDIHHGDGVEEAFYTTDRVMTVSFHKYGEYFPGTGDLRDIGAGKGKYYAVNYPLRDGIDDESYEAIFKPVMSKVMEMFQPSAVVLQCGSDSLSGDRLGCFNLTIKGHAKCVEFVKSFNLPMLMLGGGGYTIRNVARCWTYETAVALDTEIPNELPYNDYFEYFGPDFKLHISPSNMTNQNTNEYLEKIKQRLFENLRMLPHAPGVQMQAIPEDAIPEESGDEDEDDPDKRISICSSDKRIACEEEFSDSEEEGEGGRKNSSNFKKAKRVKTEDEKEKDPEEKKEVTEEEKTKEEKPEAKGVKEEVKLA
UniProt P31311: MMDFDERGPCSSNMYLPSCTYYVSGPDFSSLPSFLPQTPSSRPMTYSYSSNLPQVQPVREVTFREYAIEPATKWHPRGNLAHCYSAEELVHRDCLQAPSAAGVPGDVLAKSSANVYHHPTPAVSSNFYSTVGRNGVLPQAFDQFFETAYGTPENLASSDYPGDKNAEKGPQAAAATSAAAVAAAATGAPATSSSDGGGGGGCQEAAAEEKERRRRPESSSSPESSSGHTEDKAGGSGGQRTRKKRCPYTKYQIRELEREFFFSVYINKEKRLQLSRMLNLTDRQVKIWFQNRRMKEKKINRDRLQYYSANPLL
UniProt P31258: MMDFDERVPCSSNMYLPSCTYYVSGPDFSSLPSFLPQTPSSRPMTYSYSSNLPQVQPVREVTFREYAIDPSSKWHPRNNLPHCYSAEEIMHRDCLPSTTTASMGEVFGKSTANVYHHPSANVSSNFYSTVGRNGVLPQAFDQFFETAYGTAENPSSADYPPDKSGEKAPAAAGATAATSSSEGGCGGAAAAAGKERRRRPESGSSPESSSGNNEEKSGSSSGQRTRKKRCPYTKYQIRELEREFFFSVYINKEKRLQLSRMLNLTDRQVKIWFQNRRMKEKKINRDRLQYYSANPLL

For one test, the target named is T1, HA-tagged SIN3A (UniProt Q96ST3).
T1 sequence: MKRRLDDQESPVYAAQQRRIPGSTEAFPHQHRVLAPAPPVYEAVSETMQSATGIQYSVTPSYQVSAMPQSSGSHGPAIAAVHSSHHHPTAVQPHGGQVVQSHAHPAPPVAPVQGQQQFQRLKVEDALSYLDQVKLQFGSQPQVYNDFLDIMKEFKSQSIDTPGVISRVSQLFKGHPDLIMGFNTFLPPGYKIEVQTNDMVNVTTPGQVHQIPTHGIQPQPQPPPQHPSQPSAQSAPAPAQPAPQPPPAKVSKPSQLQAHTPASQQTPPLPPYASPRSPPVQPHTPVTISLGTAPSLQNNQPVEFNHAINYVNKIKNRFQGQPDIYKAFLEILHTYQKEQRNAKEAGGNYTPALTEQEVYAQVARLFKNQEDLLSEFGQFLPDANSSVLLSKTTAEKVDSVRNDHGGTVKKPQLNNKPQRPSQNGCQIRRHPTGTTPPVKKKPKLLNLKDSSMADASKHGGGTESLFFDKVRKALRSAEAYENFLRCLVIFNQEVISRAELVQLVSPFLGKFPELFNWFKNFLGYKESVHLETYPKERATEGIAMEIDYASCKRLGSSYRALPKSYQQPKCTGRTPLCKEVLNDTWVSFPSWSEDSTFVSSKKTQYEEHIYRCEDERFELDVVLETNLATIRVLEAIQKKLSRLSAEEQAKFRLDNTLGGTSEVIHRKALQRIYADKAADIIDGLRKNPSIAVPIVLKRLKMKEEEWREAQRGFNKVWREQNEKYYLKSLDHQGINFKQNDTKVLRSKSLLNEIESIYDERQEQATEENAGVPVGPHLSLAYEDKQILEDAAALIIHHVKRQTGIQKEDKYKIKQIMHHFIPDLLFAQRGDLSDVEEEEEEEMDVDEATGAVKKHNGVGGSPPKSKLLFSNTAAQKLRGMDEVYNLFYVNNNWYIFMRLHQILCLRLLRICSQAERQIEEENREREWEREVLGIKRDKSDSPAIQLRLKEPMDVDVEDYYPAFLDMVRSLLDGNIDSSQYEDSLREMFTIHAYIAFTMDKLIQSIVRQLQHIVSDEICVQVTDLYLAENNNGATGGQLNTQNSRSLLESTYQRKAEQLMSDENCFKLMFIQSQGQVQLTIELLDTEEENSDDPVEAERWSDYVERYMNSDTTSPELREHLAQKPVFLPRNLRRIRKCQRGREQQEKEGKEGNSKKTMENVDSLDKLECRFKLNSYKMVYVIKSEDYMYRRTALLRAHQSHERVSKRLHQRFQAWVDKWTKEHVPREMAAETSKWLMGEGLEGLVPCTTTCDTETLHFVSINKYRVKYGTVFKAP
Description: co-IP.

The target of another test is HA-tagged HDAC1 (UniProt Q13547). Kind of test: co-IP.

No constants are given. Whether binding was seen depends on the method and setting. Binding seen in cells or lysates may run through a third protein. Some entries that bind do so weakly or less than the wild type. For some of these results: Sequences can lack the tags named with a protein.

Take “FLAG-tagged full length HoxA11 (mouse) (from UniProt P31311 1-313)”: the binding entry in the test with HA-tagged SIN3A and in the test with HA-tagged HDAC1 was “binds” in each case.
In the case of “chicken HoxA11 protein (from UniProt P31258 1-297)”, the binding result with HA-tagged SIN3A and in the test with HA-tagged HDAC1 was “no binding” each time.
